Experimental data taken from PMC7519068.
No constants are given. Whether binding was seen depends on the method and setting. In cells and extracts the contact can be indirect. These calls come from enrichment with a bait or labelling near it, and not all partners need be listed. For some assays here: Where a sequence is shown, tags or fusion partners need not be part of it.

T1: Put7-V5 (Ylr283w with a C-terminal V5 tag) (S. cerevisiae) (UniProt Q05867)
T1 sequence: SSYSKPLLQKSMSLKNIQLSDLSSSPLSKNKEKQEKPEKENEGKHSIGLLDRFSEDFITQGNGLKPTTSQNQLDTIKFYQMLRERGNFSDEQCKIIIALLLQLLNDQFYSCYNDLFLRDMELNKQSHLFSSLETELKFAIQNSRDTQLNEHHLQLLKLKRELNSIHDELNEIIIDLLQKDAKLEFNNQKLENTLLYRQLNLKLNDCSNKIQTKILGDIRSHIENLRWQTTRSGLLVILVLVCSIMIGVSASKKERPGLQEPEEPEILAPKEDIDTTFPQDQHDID


How the values were obtained:
[1] = target: T1, Put7-V5 (Ylr283w with a C-terminal V5 tag) (S. cerevisiae); assay: affinity purification with mass spectrometry; 3 mg crude mitochondria from put6Δ/put7Δ cells with empty vector or Put6-V5/Put7-V5, solubilized in IP buffer (20 mM HEPES-KOH pH 7.4, 1 mM CaCl2, 100 mM NaCl, 1% digitonin, 10% glycerol); anti-V5 antibody cross-linked to Dynabeads Protein G; quantitative MS, normalized to empty vector
[2] = target: Put6-V5 (Fmp32 with a C-terminal V5 tag) (S. cerevisiae); assay: as above

Row | binding [1] | binding [2] | Molecule
1 | binds | – | Put6 (Fmp32), endogenous
2 | – | binds | Put7 (Ylr283w), endogenous (protein, UniProt Q05867 30-314) SSYSKPLLQKSMSLKNIQLSDLSSSPLSKNKEKQEKPEKENEGKHSIGLLDRFSEDFITQGNGLKPTTSQNQLDTIKFYQMLRERGNFSDEQCKIIIALLLQLLNDQFYSCYNDLFLRDMELNKQSHLFSSLETELKFAIQNSRDTQLNEHHLQLLKLKRELNSIHDELNEIIIDLLQKDAKLEFNNQKLENTLLYRQLNLKLNDCSNKIQTKILGDIRSHIENLRWQTTRSGLLVILVLVCSIMIGVSASKKERPGLQEPEEPEILAPKEDIDTTFPQDQHDID
